Data set [1] deals with Listeria monocytogenes. As to conditions: MIC treatment for 60 minutes.
In data set [2] the test system is Listeria monocytogenes. As to conditions: MIC treatment, harvested at 15, 30, 45 and 60 minutes, 12% SDS-PAGE.
In data set [3] the test system is Listeria monocytogenes. As to conditions: MIC treatment for 60 minutes. This is another data set of the same source.

Each structure is given as a SMILES string.

On to `[Na+].[OH-]` [sodium hydroxide], for which the “DNA remaining in bacterial ghosts (agarose gel)” value in data set [1] was “no DNA remaining”. Also, the “proteins remaining in bacterial ghosts” value in data set [2] is “low molecular weight proteins mainly remained”.
Regarding `Cl` [hydrochloric acid], the “DNA remaining in bacterial ghosts (agarose gel)” value in data set [1] is listed as “no DNA remaining”. In data set [3], the “Ct value compared with TE buffer solution” value is listed as “lower than that of a TE buffer solution” and the “genomic DNA amplification in bacterial ghosts (real-time PCR)” value is reported as “DNA amplification was not observed at all”. Moreover, in data set [2], the “proteins remaining in bacterial ghosts” value is “high molecular weight proteins mainly remained”.

Source of the values: US11066638B2 (priority 2016, dated 2021).
